The record followed here is the supplement of paper PMC10373366.

One experiment deals with A2780. The experiment can be described thus: cell growth inhibition ratio vs untreated control (CCK8); higher = stronger inhibition of cell viability. The note with it: 10 µM; 48 h. The procedure: (§1)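 Natural product library (Topscience) screened at 10 µM final concentration for 48 h on ovarian cancer A2780 cells and patient-derived ovarian cancer cells (PDC) in 96-well plates; viability read by CCK8 and reported as inhibition ratio (%) relative to untreated control. Single-dose primary screen.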

Experiment [1] relates to patient-derived ovarian cancer cells (PDC). Described as above. The note with it: 10 µM; 48 h. The procedure: as §1

Molecules are shown by their SMILES. Counter-ions that a name gives are not always drawn. Some of the results follow. Many values rest on one well or one pass, so single values are uncertain.

On to `CCOc1ccc(Cc2nccc3cc(OCC)c(OCC)cc23)cc1OCC` [Ethaverine hydrochloride], for which the “cell growth inhibition ratio” value worked out at 58.5% in the experiment on A2780 and 22.8% in experiment [1].
For `C/C=C(/C)C(=O)O` [Angelic Acid] the same measures were 5.31% and -6.11%.
For `C#C[C@]1(O)CC[C@H]2[C@@H]3CCc4cc(O)ccc4[C@H]3CC[C@@]21C` [Ethynyl estradiol] the same measures were 77.6% and 15.8%.
For `O=C1c2cccc(O)c2C(=O)c2c(O)cc(CO)cc21` [Aloe-emodin] the same measures were 41% and 10.4%.
Regarding `Cc1nc(C)c(C)nc1C` [Tetramethylpyrazine], the results for the “cell growth inhibition ratio” value (with A2780; in experiment [1]) were 0.655% and -2.36%, respectively.
For `Cc1ncc(CSSCc2cnc(C)c(O)c2CO)c(CO)c1O` [Pyrithioxin] the same measures were -4.82% and -11.6%.
Take `CC(=O)O[C@H]1C[C@@]2(C)[C@@H](C[C@@H](O)[C@H]3[C@@]4(C)CC[C@@H](O)[C@@H](C)[C@@H]4CC[C@@]32C)/C1=C(\CCC=C(C)C)C(=O)O` [Fusidine]: the “cell growth inhibition ratio” value in the experiment on A2780 is -0.435%; in experiment [1], 4.65%.
For `O=c1c(O)c(-c2ccccc2)oc2ccccc12` [3-Hydroxyflavone], the “cell growth inhibition ratio” value with A2780 is -7.8%; in experiment [1], -14.3%.
For `CCOC(=O)c1ccc(O)cc1` [Ethylparaben] the same measures were 10.2% and 12.5%.
`N[C@@H]1CONC1=O` [D-Cycloserine]: the figures for the “cell growth inhibition ratio” value (in the experiment on A2780; in experiment [1]) were 6.67% and -3.36%, respectively.
Turning to `OC[C@H]1O[C@@H](Oc2cc(O)cc(/C=C/c3ccc(O)cc3)c2)[C@H](O)[C@@H](O)[C@@H]1O` [Piceid], the “cell growth inhibition ratio” value with A2780 was -5.29%; in experiment [1], -8.59%.
For `C[C@H]1O[C@@H](O[C@H]2[C@@H](O)C[C@H](O[C@H]3[C@@H](O)C[C@H](O[C@H]4CC[C@@]5(C)[C@H](CC[C@@H]6[C@@H]5CC[C@]5(C)[C@@H](C7=CC(=O)OC7)CC[C@]65O)C4)O[C@@H]3C)O[C@@H]2C)C[C@H](O)[C@@H]1O` [Digitoxin] the same measures were 86.6% and 79.7%.
On to `OC[C@@H](O)[C@@H](O)[C@H](O)[C@H](O)CO` [D-Mannitol], for which the “cell growth inhibition ratio” value in the experiment with A2780 came to 11.8%; in experiment [1], 1.14%.
For `Cc1coc2c1C(=O)C(=O)c1c-2ccc2c(C)cccc12` [Tanshinone I] the same measures were 86.1% and 7.2%.
For `CC(=O)Oc1cccc2c1C(=O)c1c(OC(C)=O)cc(C(=O)O)cc1C2=O` [Diacerein] the same measures were 4.46% and 0.786%.
On to `C=C(C)[C@@H]1CC[C@]2(C)CC[C@]3(C)[C@H](CC[C@@H]4[C@@]5(C)CC[C@H](O)C(C)(C)[C@@H]5CC[C@]43C)[C@@H]12` [Lupeol], for which the “cell growth inhibition ratio” value in the experiment with A2780 is -8.23%; in experiment [1] it was 6.17%.
For `CC1=CC(=O)CC(C)(C)[C@@]1(O)/C=C/C(C)=C\C(=O)O` [Abscisic acid] the same measures were -1.65% and -7.47%.
Regarding `COc1ccc(C[C@H]2COC(=O)[C@]2(O)Cc2ccc(O[C@@H]3O[C@H](CO)[C@@H](O)[C@H](O)[C@H]3O)c(OC)c2)cc1OC` [tracheloside], the “cell growth inhibition ratio” value in the experiment on A2780 was 27.3%; in experiment [1], 0.374%.
For `Oc1ccc2c(c1)OCO2` [Sesamol] the same measures were 10.6% and 5.25%.
For `CC[C@@H]1C(=O)OC[C@@H]1Cc1cncn1C` [(+)-Pilocarpine hydrochloride] the same measures were 1.67% and 16.6%.
For `C[C@@H]1[C@H](O)[C@@H](C)/C=C/C=C/C=C/C=C/C=C/C=C/C=C/[C@H](O[C@@H]2O[C@H](C)[C@@H](O)[C@H](N)[C@@H]2O)C[C@@H]2O[C@](O)(C[C@@H](O)C[C@@H](O)[C@H](O)CC[C@@H](O)C[C@@H](O)CC(=O)O[C@H]1C)C[C@H](O)[C@H]2C(=O)O` [Amphotericin B] the same measures were -8.5% and 6.09%.
With `COc1ccc(CC(=O)O)cc1OC` [Homoveratrumic acid], the “cell growth inhibition ratio” value in the experiment on A2780 was -9.83%; in experiment [1] it was 13.7%.
For `COc1cc(CCC(=O)O)ccc1O` [Hydroferulic acid] the same measures were -0.791% and 26.6%.
